ChEMBL document CHEMBL3526101, “Discovery and characterization of novel, potent, and selective cytochrome P450 2J2 inhibitors” (Drug Metab Dispos, 2013)

Target: T1, Cytochrome P450 2J2 (Homo sapiens, UniProt P51589)
T1 sequence (P51589 whole entry): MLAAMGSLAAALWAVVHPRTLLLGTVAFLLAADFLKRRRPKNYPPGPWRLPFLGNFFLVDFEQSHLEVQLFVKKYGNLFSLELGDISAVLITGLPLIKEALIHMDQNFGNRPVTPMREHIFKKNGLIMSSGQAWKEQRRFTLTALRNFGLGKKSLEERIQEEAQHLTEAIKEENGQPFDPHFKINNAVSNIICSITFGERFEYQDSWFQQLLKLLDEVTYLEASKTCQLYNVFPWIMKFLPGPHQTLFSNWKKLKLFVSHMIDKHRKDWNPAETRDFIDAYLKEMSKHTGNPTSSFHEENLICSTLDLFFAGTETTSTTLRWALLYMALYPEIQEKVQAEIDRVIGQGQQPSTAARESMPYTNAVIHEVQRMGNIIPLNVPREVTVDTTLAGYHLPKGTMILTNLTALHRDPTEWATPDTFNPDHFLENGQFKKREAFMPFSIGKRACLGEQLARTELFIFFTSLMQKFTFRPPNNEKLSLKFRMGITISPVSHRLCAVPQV

| Structure (SMILES) | IC50 [µM] |
| --- | --- |
| CC(C)(C(=O)O)c1ccc(C(O)CCCN2CCC(C(O)(c3ccccc3)c3ccccc3)CC2)cc1 (configuration not stated) [FEXOFENADINE] | > 50 |
| NS(=O)(=O)c1cc(C(=O)O)c(NCc2ccco2)cc1Cl [FUROSEMIDE] | > 50 |
